According to PMC10716145, “ZNF524 directly interacts with telomeric DNA and supports telomere integrity”:

Key:
[1] = biological target: T1, ZNF524 ZF1-4 minimal domain (human) (UniProt Q96C55); test: ITC; conditions: G4 annealed in 100 mM KCl, main text says no interaction detected; ITC: 20 mM Tris-HCl pH 7.5, 150 mM NaCl, 20 C; recombinant protein; residues 110-223; folded or branched DNA
T1 sequence (looked up): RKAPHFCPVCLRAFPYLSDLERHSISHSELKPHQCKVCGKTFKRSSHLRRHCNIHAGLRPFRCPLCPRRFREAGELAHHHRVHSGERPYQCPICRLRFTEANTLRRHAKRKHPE

endogenous ZNF524 = biological target: T2, endogenous ZNF524 (UniProt Q96C55); test: pull-down; conditions: pull-down: 50 mM Tris-HCl pH 7.5, 150 mM NaCl, 0.5% IGEPAL, 5 mM MgCl2, 1 mM DTT, salmon sperm DNA, 4 C; protein in an extract; label: biotin-7-dATP
T2 sequence (looked up, limits assumed): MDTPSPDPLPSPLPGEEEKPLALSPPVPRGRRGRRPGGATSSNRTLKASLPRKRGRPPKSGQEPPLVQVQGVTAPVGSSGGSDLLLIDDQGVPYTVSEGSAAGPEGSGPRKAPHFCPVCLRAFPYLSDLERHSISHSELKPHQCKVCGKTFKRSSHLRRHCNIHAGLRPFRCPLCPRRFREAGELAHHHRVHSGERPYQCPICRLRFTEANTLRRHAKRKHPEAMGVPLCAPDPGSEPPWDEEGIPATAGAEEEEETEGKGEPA

ZNF524 ZF1-2 (human) = biological target: T3, ZNF524 ZF1-2 (human) (UniProt Q96C55); test: ITC; conditions: Fig 1d prints >20; ITC: 20 mM Tris-HCl pH 7.5, 150 mM NaCl, 20 C; recombinant protein
T3 sequence (looked up, limits assumed): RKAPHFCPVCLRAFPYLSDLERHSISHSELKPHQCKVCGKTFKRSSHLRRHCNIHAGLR

Sequence: TTAGGGTTAGGGTTAGGGTTAGGG [(TTAGGG)4-G4]
- Kd [1]: 3.58 µM

Sequence: GTGAGTGTGAGTGTGAGTGTGAGTGTGAGTGTGAGTGTGAGTGTGAGTGTGAGTGTGAGT / ACACTCACACTCACACTCACACTCACACTCACACTCACACTCACACTCACACTCACACTC [GTGAGT scrambled pull-down bait]
- binding result (endogenous ZNF524): no binding

Sequence: GGTTAGGGTTAG (double strand) [TTAGGG 12-bp duplex]
- Kd (ZNF524 ZF1-2 (human)): > 100 µM

The exact form of at least one protein or probe is not confirmed. For part of these data: At least one result comes from cells or an extract, where the contact may be indirect. For part of these data: Negatives hold for the conditions tested. Where a protein sequence is shown, tags need not be part of it.
